In general, cell viability refers to a read-out of living cells in per cent, often relative to untreated cells.

Where “and” joins values, the source holds several entries; their conditions need not be identical. Identical values can stand only once. Counter-ions that a name gives are not always drawn. ± gives the standard deviation of the averaged measurements. The list shows a part of the results. Many values rest on one well or one pass, so single values are uncertain.

Cell viability data for 89 compounds are collected here from the supplement of paper PMC3682954.

The subject of the assay is RAW 264.7. Kind of assay: cell viability (MTT) relative to vehicle control; higher = more viable cells. Particulars: stimulus: HMGB1 5 ug/ml, 18 h.
[1] abbreviates: compound concentration: 1 ug/ml.

`S=C=Nc1ccc(N=C=S)cc1`: the cell viability (compound concentration: 3 uM) turned out to be 113%.

On to `Cn1cc(C(=O)OCC2CCN(CCNS(C)(=O)=O)CC2)c2ccccc21`, for which the cell viability (compound concentration: 3 uM) worked out at 106%.

On to `C#C[C@]1(O)CC[C@H]2[C@@H]3[C@H](C)CC4=C(CCC(=O)C4)[C@H]3CC[C@@]21C` [Tibolone], for which the cell viability (compound concentration: 3 uM) is 99.205 ± 0.092%.

For the compound `C#C[C@]1(O)CC[C@H]2[C@@H]3[C@H](C)CC4=C(CCC(=O)C4)[C@H]3CC[C@@]21C`, the cell viability (compound concentration: 3 uM) came out at 98.3%. Still for that read-out and setting: in the case of `CN(C)CCCOc1nn(Cc2ccccc2)c2ccccc12` [Benzydamine hydrochloride] it was 112%; in that of `CN(C)CCCOc1nn(Cc2ccccc2)c2ccccc12`, 95.8%; in that of `CN(C)CCCOc1nn(Cc2ccccc2)c2ccccc12` [Benzydamine], 86.2%. Turning to `O=C1c2c(O)cc(O)cc2OC(c2ccc(O)c(O)c2)C1O` (centres undefined), under setting [1], the cell viability came to 92.6%. Consider `O=C1c2c(O)cc(O)cc2O[C@H](c2ccc(O)c(O)c2)[C@H]1O`, for which the cell viability (compound concentration: 3 uM) was determined as 99.7%. Take `O=C1c2c(O)cc(O)cc2O[C@H](c2ccc(O)c(O)c2)[C@H]1O` (racemic): the cell viability (compound concentration: 3 uM) is 98.3%. Same read-out and setting: under `O=C1c2ccccc2C(=O)c2c(NCCc3ccc(O)cc3)ccc(NCCc3ccc(O)cc3)c21` stands 96.8%; under `CC1CCN=C(N)S1` (racemic) [(±)-AMT hydrochloride], 111%. Consider `Nc1ccc(S(=O)(=O)Nc2ccc(Cl)nn2)cc1` [Sulfachloropyridazine], for which the cell viability (compound concentration: 3 uM) amounted to 103%.

For `Nc1ccc(S(=O)(=O)Nc2ccc(Cl)nn2)cc1`, the cell viability (compound concentration: 3 uM) amounted to 113%. On the same count and under the same terms, in the case of `Cc1nc(N=Nc2ccc(C(=O)O)cc2)c(COP(=O)(O)O)c(C=O)c1O` it was 102%; in that of `CC1CCC(NC(=O)N(CCCl)N=O)CC1` (centres undefined), 90.4 ± 18%; in that of `COc1cc2nc(N3CCN(C(=O)C4CCCO4)CC3)nc(N)c2cc1OC` (centres undefined), 104%. As to `COc1cc2nc(N3CCN(C(=O)C4CCCO4)CC3)nc(N)c2cc1OC` (centres undefined) [Terazosin hydrochloride], the cell viability (compound concentration: 3 uM) was 123 ± 15%. The same measure, in the same setting: in the case of `COc1cc2nc(N3CCN(C(=O)C4CCCO4)CC3)nc(N)c2cc1OC` (centres undefined) [Terazosin] it was 90 ± 7.3%. Same read-out and setting: in the case of `Oc1ccc(O)cc1` it was 106%; in that of `Oc1ccc(O)cc1` [Hydroquinone], 108%; in that of `C[C@H]1C[C@H]2[C@@H]3CCC4=CC(=O)C=C[C@]4(C)[C@@]3(Cl)[C@@H](O)C[C@]2(C)[C@@]1(O)C(=O)CO` [Beclomethasone], 106 ± 3.4%. Same read-out and setting: in the case of `CC[C@@]1(O)C(=O)OCc2c1cc1n(c2=O)Cc2cc3cc(O)ccc3nc2-1` [10-Hydroxycamptothecin] it was 47%; in that of `CC[C@@]1(O)C(=O)OCc2c1cc1n(c2=O)Cc2cc3cc(O)ccc3nc2-1`, 64.2%. `Cc1cccc(-c2[nH]c(C(C)(C)C)nc2-c2ccc3nccnc3c2)n1`: under “compound concentration: 3 uM”, the cell viability worked out at 93.2%.

`CC[N+](CC)(CC)CC` [Tetraethylammonium chloride]: the cell viability (compound concentration: 3 uM) amounted to 118%. On the same count and under the same terms, in the case of `COc1ccc(CCN(C)CCc2ccc(OC)c(OC)c2)cc1OC` [YS-035 hydrochloride] it was 110%; in that of `CC(=O)O[C@]1(C(C)=O)CC[C@H]2[C@@H]3C=C(C)C4=CC(=O)CC[C@@H]4[C@H]3CC[C@@]21C` [Nomegestrol acetate], 82.3%; in that of `Cc1ccccc1/C=C/C1=NCCN1` [Metrazoline oxalate], 103%. Same read-out and setting: under `O=C1NC(=O)/C(=C/c2ccc(-c3ccc(F)cc3O)o2)S1` stands 97.6%; under `O=C1C(CC[S+]([O-])c2ccccc2)C(=O)N(c2ccccc2)N1c1ccccc1` (centres undefined), 102%; under `O=C1C(CC[S+]([O-])c2ccccc2)C(=O)N(c2ccccc2)N1c1ccccc1` (centres undefined) [Sulfinpyrazone], 90.6%. On the same count and under the same terms, under `CC(=O)OC/C=C(C)/C=C/C=C(C)/C=C/C1=C(C)CCCC1(C)C` [Vitamin A acetate] stands 107%.

As to `CC(=O)OC/C=C(C)/C=C/C=C(C)/C=C/C1=C(C)CCCC1(C)C`, the cell viability (compound concentration: 3 uM) is 108%. Same read-out and setting: under `Clc1ccc2c(c1)N=C(N1CCNCC1)c1ccccc1N2` [N-Desmethylclozapine] stands 88.3%; under `NS(=O)(=O)c1cc2c(cc1Cl)N=C(CSCc1ccccc1)NS2(=O)=O`, 107%. Still for that read-out and setting: in the case of `NS(=O)(=O)c1cc2c(cc1Cl)N=C(CSCc1ccccc1)NS2(=O)=O` [Benzthiazide] it was 109%; in that of `CS(=O)(=O)c1ccc([C@@H](O)[C@@H](CO)NC(=O)C(Cl)Cl)cc1` [Thiamphenicol], 96%. Still for that read-out and setting: under `CS(=O)(=O)c1ccc([C@@H](O)[C@@H](CO)NC(=O)C(Cl)Cl)cc1` stands 102%; under `CC(C)Cc1ccc([C@H](C)C(=O)O)cc1` [S-(+)-ibuprofen], 111%.

`CC(C)Cc1ccc([C@H](C)C(=O)O)cc1` [S(+)-Ibuprofen]: for the setting “compound concentration: 3 uM”, the cell viability was found to be 99.7%. Still for that read-out and setting: in the case of `C[C@]12C=CC(=O)C=C1CC[C@@H]1[C@@H]2[C@@H](O)C[C@@]2(C)[C@H]1CC[C@]2(O)C(=O)CO` it was 110%; in that of `C[C@]12C=CC(=O)C=C1CC[C@@H]1[C@@H]2[C@@H](O)C[C@@]2(C)[C@H]1CC[C@]2(O)C(=O)CO` [Prednisolone], 115 ± 12%. Same read-out and setting: under `O=c1[nH]cc(F)c(=O)[nH]1` stands 99.7 ± 3%; under `O=c1[nH]cc(F)c(=O)[nH]1` [5-fluorouracil], 88.9%; under `O=c1[nH]cc(F)c(=O)[nH]1` [5-Fluorouracil], 103 ± 3.7%. On to `CCCCCCCC/C=C\CCCCCCCC(=O)NCc1ccc(O)c(OC)c1` [Olvanil], for which the cell viability (compound concentration: 3 uM) was determined as 92.6%.

As for `C[N+](C)(C)CCO.[Br-]` [Choline bromide], the cell viability (compound concentration: 3 uM) was determined as 103%.

`N=c1ccn2c(n1)O[C@H]1[C@H](O)[C@@H](CO)O[C@H]12` [Cyclocytidine]: for the setting “compound concentration: 3 uM”, the cell viability turned out to be 100%. On to `N=c1ccn2c(n1)O[C@H]1[C@H](O)[C@@H](CO)O[C@H]12`, for which the cell viability (compound concentration: 3 uM) stood at 108 ± 3.1%. The same measure, in the same setting: in the case of `N=c1ccn2c(n1)O[C@H]1[C@H](O)[C@@H](CO)O[C@H]12` [Ancitabine hydrochloride] it was 88.2%. The same measure, in the same setting: in the case of `CC(=O)Oc1cc(C(F)(F)F)ccc1C(=O)O` [Triflusal] it was 80.2%. The same measure, in the same setting: in the case of `CN1CCN(CCCN2c3ccccc3Sc3ccc(S(=O)(=O)N(C)C)cc32)CC1` [Thioproperazine dimesylate] it was 105%; in that of `C[C@@H](c1ncncc1F)[C@](O)(Cn1cncn1)c1ccc(F)cc1F`, 93.7%; in that of `O=C(O)Cc1ccccc1Nc1c(Cl)cccc1Cl`, 97% and 98.6%. For `O=C(O)Cc1ccccc1Nc1c(Cl)cccc1Cl` [Diclofenac sodium], the cell viability (compound concentration: 3 uM) came to 98.4 ± 8.6%. On the same count and under the same terms, in the case of `O=C(O)Cc1ccccc1Nc1c(Cl)cccc1Cl` [Diclofenac] it was 96.7%. The same measure, in the same setting: in the case of `COc1cc2c(cc1O)CC[C@@H]1[C@@H]2CC[C@]2(C)[C@@H](O)CC[C@@H]12` [2-methoxyestradiol] it was 103%; in that of `CNC(=O)[C@H]1O[C@@H](n2cnc3c(NCc4ccc(N)cc4)ncnc32)[C@H](O)[C@@H]1O`, 100%. For `COC(=O)C1=C(C)NC(C)=C(C(=O)OC)C1c1ccccc1[N+](=O)[O-]` [Nifedipine], the cell viability (compound concentration: 3 uM) was found to be 109 ± 6.2%. Take `COC(=O)C1=C(C)NC(C)=C(C(=O)OC)C1c1ccccc1[N+](=O)[O-]`: under “compound concentration: 3 uM”, the cell viability worked out at 102 ± 6%.

Regarding `Cc1cc2c(C(C)C)c(O)c(O)c(/C=N/NC(=O)c3ccoc3C)c2c(O)c1-c1c(C)cc2c(C(C)C)c(O)c(O)c(/C=N/NC(=O)c3ccoc3C)c2c1O`, the cell viability under setting [1] stood at 109%. Regarding `CN(C)CCCN1c2ccccc2CCc2ccc(Cl)cc21`, the cell viability (compound concentration: 3 uM) amounted to 103%. Take `CN(C)CCCN1c2ccccc2CCc2ccc(Cl)cc21` [Clomipramine hydrochloride]: the cell viability (compound concentration: 3 uM) was found to be 99.4 ± 8.4%. Same read-out and setting: under `CO[C@@]1(NC(=O)C2SC(=C(C(N)=O)C(=O)O)S2)C(=O)N2C(C(=O)O)=C(CSc3nnnn3C)CS[C@@H]21` (some centres undefined) [Cefotetan] stands 130%. As to `Cc1cc(C)cc(OCC(=O)N/N=C/c2c(O)c(O)c(C(C)C)c3cc(C)c(-c4c(C)cc5c(C(C)C)c(O)c(O)c(/C=N/NC(=O)COc6cc(C)cc(C)c6)c5c4O)c(O)c23)c1`, the cell viability under setting [1] amounted to 90.8%. As for `Cc1cc(NC(=O)C2=C(O)c3ccccc3S(=O)(=O)N2C)no1` [Isoxicam], the cell viability (compound concentration: 3 uM) was 97.7%. On the same count and under the same terms, in the case of `Cc1cc(NC(=O)C2=C(O)c3ccccc3S(=O)(=O)N2C)no1` it was 112%; in that of `O=C1NC(=O)/C(=C\c2ccc3nccnc3c2)S1`, 107%; in that of `Cc1cc(C(C)(C)CC(C)(C)C)ccc1OCCOCC[N+](C)(C)Cc1ccccc1` [Methyl benzethonium chloride], 109%. On the same count and under the same terms, under `Cc1cc(C(C)(C)CC(C)(C)C)ccc1OCCOCC[N+](C)(C)Cc1ccccc1` stands 92.9%.

In the case of `Nc1ccc(O)c(C(=O)O)c1`, the cell viability (compound concentration: 3 uM) stood at 97.3%. The same measure, in the same setting: under `Nc1ccc(O)c(C(=O)O)c1` [5-Aminosalicylic acid] stands 90.5%; under `Nc1ccc(O)c(C(=O)O)c1` [5-Amino-2-hydroxy-benzoic acid], 97.9%. The same measure, in the same setting: in the case of `Nc1ccc(O)c(C(=O)O)c1` [Mesalamine] it was 86%; in that of `CCN(CC)CCOC(=O)C1(c2ccc([N+](=O)[O-])cc2)CCCC1` [Nitrocaramiphen hydrochloride], 69.6%. Same read-out and setting: under `Clc1ccccc1CN1CCc2sccc2C1` [Ticlopidine] stands 106%; under `Clc1ccccc1CN1CCc2sccc2C1`, 96.5% and 107%; under `Clc1ccccc1CN1CCc2sccc2C1` [Ticlopidine hydrochloride], 91.2%. Consider `Nc1ccc(S(=O)(=O)Nc2ncccn2)cc1` [Sulfadiazine], for which the cell viability (compound concentration: 3 uM) was 97.3 ± 9.1%. Still for that read-out and setting: under `Nc1ccc(S(=O)(=O)Nc2ncccn2)cc1` stands 101%. Same read-out and setting: under `O=C(O[C@H]1[C@H](Oc2ccccc2COC(=O)C2(O)C=CCCC2=O)O[C@H](CO)[C@@H](O)[C@@H]1O)c1ccccc1` (some centres undefined) stands 96.8%. In the case of `O=C(Nc1ccn([C@@H]2O[C@H](CO)[C@@H](O)[C@H]2O)c(=O)n1)c1ccccc1` [N4-Benzoylcytidine], under setting [1], the cell viability is 97.3%. Regarding `C#C[C@]1(OC(C)=O)CC[C@H]2[C@@H]3CCC4=C[C@@H](OC(C)=O)CC[C@@H]4[C@H]3CC[C@@]21C`, the cell viability (compound concentration: 3 uM) amounted to 98.2%. Consider `C#C[C@]1(OC(C)=O)CC[C@H]2[C@@H]3CCC4=C[C@@H](OC(C)=O)CC[C@@H]4[C@H]3CC[C@@]21C` [Ethynodiol diacetate], for which the cell viability (compound concentration: 3 uM) was found to be 97.5%. On to `COc1cc2c(CCNC(C)=O)c[nH]c2cc1O` [6-Hydroxymelatonin], for which, where the note is “compound concentration: 3 uM”, the cell viability worked out at 108%. In the case of `O=C(O)CNC(=O)c1ccccc1` [Hippuric acid], the cell viability under setting [1] amounted to 99.9%.

Consider `C#C[C@]1(O)CC[C@H]2[C@@H]3CCC4=CC(=O)CC[C@@H]4[C@H]3CC[C@@]21C`, for which the cell viability (compound concentration: 3 uM) was 105%.

Consider `C#C[C@]1(O)CC[C@H]2[C@@H]3CCC4=CC(=O)CC[C@@H]4[C@H]3CC[C@@]21C` [Norethindrone], for which, under “compound concentration: 3 uM”, the cell viability stood at 95.6 ± 3.2%.
